Measurements reported in US4843158A, “[2,2,1]Cryptand compounds that selectively bind sodium” (priority 1985, dated 1989).

How the values were obtained:
Format in all cases: binding
[1] = Cation induced 19F NMR chemical shift, potassium; conditions: 37° C.
Method: (§1) NMR titrations: Nmr spectra were recorded on Bruker WH 200 or Am 400 spectrometers at 188 or 376 MHz respectively at chelator concentrations between 5 and 10 mM in the same buffer as for fluorescence titrations but containing 20% D2 O at 37° C. The spectra were obtained with an acquisition time of 1.0 sec. and a 90° pulse and were processed with resolution enhancement (-0.5 of the observed line width) and appropriate gaussian sensitivity enhancement. The proportion of M^n+ -chelator complex was calculated from the integrals of the resolved free and bound chelator ^19 F resonances, or from the chemical shift of complexes in fast exchange. The apparent affinities were determined graphically as for the fluorescence data, but using a two step iteration from the affinity derived from the fluorescence data when the dissociation constant was close to the chelator concentration in the nmr titrations.

[2] = Cation induced 19F NMR chemical shift, magnesium; conditions: 37° C.
[3] = Cation induced 19F NMR chemical shift, sodium; conditions: 37° C.
Method: as §1

[4] = Cation induced 19F NMR chemical shift, calcium; conditions: 37° C.
[5] = Cation induced 19F NMR chemical shift, proton; conditions: 37° C., at pH 7.0

Structure (SMILES)	Cation Induced Chemical Shift, K+ [1]	Cation Induced Chemical Shift, Mg2+ [2]	Cation Induced Chemical Shift, Na+ [3]	Cation Induced Chemical Shift, Ca2+ [4]	Cation Induced Chemical Shift, H+ [5]
O=C(O)CN(CC(=O)O)c1ccc2c(c1)OCCN1CCOCCN(CCO2)c2ccc(F)cc2OCCOc2cc(F)ccc21 [Compound 7a]	1.09 ppm downfield	0 ppm downfield	3.09 ppm downfield	0 ppm downfield	
O=C(O)CN(CC(=O)O)c1cccc(N2CCN3CCOc4ccc(N(CC(=O)O)CC(=O)O)cc4OCCN(CC2)c2ccc(F)cc2OCCOc2cc(F)ccc23)c1 [Compound 7d]	0 ppm downfield	0 ppm downfield	1.96 ppm downfield	0 ppm downfield	-0.5 ppm per unit of pH
CC(=O)c1cc2c(cc1N(CC(=O)O)CC(=O)O)OCCN1CCN(c3cccc(N(CC(=O)O)CC(=O)O)c3)CCN(CCO2)c2ccc(F)cc2OCCOc2cc(F)ccc21 [Compound 8d]	0 ppm downfield	0 ppm downfield	2.00 ppm downfield	0 ppm downfield	-0.25 ppm per unit of pH
